# The full ranking holds about 33,000 sequences; the median of “E-score (-0.5 to 0.5)” is about -0.0034, and the highest 2% start at about 0.25. Some of the results follow.
# Biological target: T1, Yap3 (UniProt P38749)
# T1 sequence: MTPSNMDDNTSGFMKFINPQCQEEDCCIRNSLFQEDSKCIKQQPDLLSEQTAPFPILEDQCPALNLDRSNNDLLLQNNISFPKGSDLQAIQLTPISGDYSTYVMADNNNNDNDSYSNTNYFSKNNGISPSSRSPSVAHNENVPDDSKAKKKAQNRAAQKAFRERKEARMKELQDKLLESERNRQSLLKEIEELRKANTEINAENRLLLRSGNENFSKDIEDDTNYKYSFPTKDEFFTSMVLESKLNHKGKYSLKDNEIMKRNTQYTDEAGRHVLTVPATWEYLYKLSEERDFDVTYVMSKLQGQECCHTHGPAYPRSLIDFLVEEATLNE
# Experiment: PBM E-score (8-mer binding enrichment) (E-score (-0.5 to 0.5)); higher = stronger / more preferred TF binding
# Conditions: protein concentration: 100 nM; construct: GST-full length
# Procedure, shortened: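 Each ungapped eight-base word and its reverse complement, pooled, received an E-score from the Universal PBM Analysis Suite. Underlying scans, normalised with masliner, recorded fluorescent anti-GST bound to GST-tagged yeast transcription factors. These were applied at about 100-200 nM to universal all-10-mer Agilent arrays double-stranded by primer extension.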
row,Sequence,PBM E-score
1,AGATACGA,0.237
2,TACCAAAA,0.192
3,CATTCTTC,0.0193
4,GTAACGAC,-0.0321
5,CCCACTGC,-0.0698
6,GGCCACGA,-0.048
7,CAGCCCAA,-0.0513
8,TAGCTCCA,-0.0175
9,AGTGGCGG,-0.0571
10,CGAACCGA,-0.0278
11,TCGTGCCA,0.00074
12,CAGGGACG,-0.121
13,TCGGCCAA,-0.117
14,CGAATGGC,0.0852
15,CCGTCAAA,-0.0141
16,GATTTGAA,0.105
17,TCGCCCGA,-0.087
18,CGGATAGC,0.052
19,GAGCCAGA,-0.0308
20,GAGAGCCC,-0.368
21,ACAGTCTG,-0.0848
22,GACACGCC,-0.0195
23,AGCTGGTA,-0.19
24,CTCAGTCA,-0.0269
25,GGAAATTA,0.332

# Shown as tab-separated lines: part of the list above.
row	Sequence	PBM E-score
14	CGAATGGC	0.0852
15	CCGTCAAA	-0.0141
16	GATTTGAA	0.105
17	TCGCCCGA	-0.087
18	CGGATAGC	0.052

# Remaining list, next part.

row,Sequence,PBM E-score
1,CTGACTGC,-0.146
2,GTGGAGGA,-0.018
3,ACTAAGGA,0.135
4,ATTAGAGC,0.116
5,ACATCGAT,0.0921
6,TACTCAGA,0.193
7,AAAGGAAG,0.0221
8,GCCTGATA,-0.0309
9,CTCGCGAA,-0.137
10,CTAGGCAC,-0.0902
11,GTACCTCA,0.0926
12,AGCTCGCA,0.00629
13,GACCACTC,-0.131
14,CAAATTTC,0.173
15,TACGATAA,0.223
16,AACTCGCT,0.116
17,ACATACCG,-0.00463
18,AGCATCAT,0.0467
19,CACTGTTC,-0.122
20,TAAGTTCA,0.0657
21,CTAGCAGC,-0.0449
22,GCGAACGC,-0.105
23,CAGCTTGC,-0.0524
24,ATCTGCAG,0.0186
25,CGCAGTAA,0.17

row,Sequence,PBM E-score
1,GCAGCTAA,-0.176
2,GAAATTAC,0.265
3,GCAGTCTA,-0.0323
4,GCATCGTA,-0.059
5,AGTTCGGG,0.0635
6,GGTTAGTA,0.0941
7,AAAAGTAC,0.211
8,ATATACAG,0.184
9,ATGTTACA,0.0732
10,CCAGATTA,0.0902
11,ACCCCTTG,-0.327
12,ACTAGTTC,0.0926
13,AAGTTTCT,0.144
14,ATCCGTCA,0.0808
15,TCAGCAAA,0.15
16,ATTTCCTA,0.227
17,ACGGGCGG,-0.15
18,CGCGACCG,-0.00067
19,GAGAGCGC,-0.0761
20,AAGCTTTC,0.0821
21,ACGCCTAT,-0.0267
22,TCGACTCA,0.127
23,CAAGCCGG,0.05
24,CTTAGCAC,-0.0486
25,GCTATAAA,0.125

row,Sequence,PBM E-score
1,GTTGTTAA,0.298
2,ACCATACA,0.00929
3,GCTAAGAA,-0.0659
4,CGTAAGAG,0.141
5,AGGTACCT,-0.132
6,CGTTCGTA,0.213
7,ACGTACCG,0.0422
8,GAATGATC,0.0388
9,CCTGAATC,-0.0272
10,TATGGAGA,0.106
11,GGTTTCCA,-0.0109
12,CGTTAGCA,0.0832
13,AGCATCGG,-0.184
14,ACTGCTAC,0.0438
15,AGTTAGTA,0.195
16,AGGATCTG,-0.084
17,CTTAGCCC,-0.0308
18,AGCCGGCT,-0.343
19,GACGAAAA,0.264
20,AGGCTTTA,-0.0587
21,CGGGCAAA,-0.00437
22,CAGAGCCA,-0.271
23,ATAGATGA,0.0274
24,ATCCTTAC,0.0371
25,ACACGGAA,0.0309

# An excerpt of these results, with bars between the fields.
row | Sequence | PBM E-score
14 | ACTGCTAC | 0.0438
15 | AGTTAGTA | 0.195
16 | AGGATCTG | -0.084
17 | CTTAGCCC | -0.0308
18 | AGCCGGCT | -0.343

# More records follow.

row,Sequence,PBM E-score
1,GTTTTGGA,-0.0305
2,CTCGACAA,-0.0404
3,CAATATGG,-0.00272
4,AACCTACG,0.116
5,ATCGATAA,0.0958
6,ACCCGTGG,-0.293
7,ATCTTCGA,0.00078
8,CTGGCAAA,0.0635
9,AATACCCG,0.0423
10,ACTATGTA,-0.0022
11,ATGACTTG,-0.02
12,TCCTCCAA,-0.0561
13,CTGAACTC,-0.146
14,GAGTGTGC,-0.037
15,ATGACTGC,-0.127
16,ACTCCAAT,0.0453
17,GCGTGAAA,0.145
18,GTGCGATA,0.0332
19,GCCCACGA,-0.193
20,AGCGAGTC,-0.0628
21,AGTGCAAG,0.0318
22,AACCGAGC,-0.019
23,ATGGCCTC,-0.0534
24,CCTAGGGA,0.00627
25,GAGAATGC,0.145

row,Sequence,PBM E-score
1,ACAACGCC,0.0392
2,TCAATAGA,0.00876
3,CCCCAAGC,-0.118
4,CGGCCGAG,-0.0519
5,TACATAAA,0.251
6,GAGCGCCC,-0.266
7,CACAATTC,0.194
8,GGGCGAGA,-0.133
9,TCAATTCA,0.0527
10,GCCTCCTA,-0.0978
11,CCCTTCCC,-0.206
12,CGCTGAAA,-0.132
13,AGCTATAT,0.102
14,AGCGGACG,0.0065
15,AGTCTCCC,-0.103
16,CTCTTCGA,0.0572
17,CCGCGAGG,-0.0632
18,ACCAAGAC,0.175
19,ATCCGAAA,0.0246
20,GGCAGGAA,-0.0994
21,GTACGGTA,0.116
22,CATATGAG,0.186
23,TAGCCTAA,-0.21
24,ACTGGTGC,-0.0779
25,GAGGCGGC,0.0325

# Fetched one by one from the list above:
row,Sequence,PBM E-score
22,TCGACTCA,0.127
15,ATGACTGC,-0.127

# Next part:

row,Sequence,PBM E-score
1,GTAGGGAC,-0.23
2,AAGCTGGG,-0.0964
3,AGTGCCAC,-0.152
4,AAAACCGG,-0.0353
5,AGATGTCC,-0.134
6,CAGGAAGC,0.00172
7,GCGTGCAA,-0.0232
8,ACTAAATG,0.0892
9,GAGTAAAA,0.0681
10,GCTGGACA,-0.074
11,TGGGACCA,-0.0724
12,AGAGCCAA,-0.0964
13,AAAAAACC,0.0612
14,AAGTGCCG,-0.0332
15,CTAAGACC,-0.0747
16,CTCCATAA,-0.0865
17,ATTGGCGG,-0.0717
18,CGGAAGCA,0.112
19,ACCCCAAG,-0.0314
20,ATCGGACA,-0.151
21,CCCTATAC,-0.146
22,CCCGGTGC,-0.398
23,AACGTCCA,-0.0321
24,AAGATCTA,-0.0728
25,CGGATTAG,0.075

row,Sequence,PBM E-score
1,GCGGCTGA,-0.1
2,TCCGCAAA,0.0357
3,CGTGAATA,0.193
4,GACCTTAC,0.0154
5,GGAGTCCC,-0.367
6,TAGTTCAA,0.0718
7,CCTATACG,-0.0828
8,AGTGGTCG,-0.0744
9,TAGTGAGA,0.00091
10,AACTCACG,-0.028
11,CCAACGGC,-0.213
12,GGGAAGGA,-0.16
13,CGGCGGTA,0.0962
14,GTTATAGA,0.0873
15,AAAAAATG,0.209
16,ATGGAGCG,-0.0284
17,ATCTAACA,0.12
18,CGCCACAA,0.099
19,ACTCCCCT,-0.237
20,CAAAGTGC,-0.0192
21,GATCCTAC,0.0997
22,ACTATCAC,-0.00788
23,AAGGTACT,-0.00394
24,CTGTGGCA,-0.0995
25,TAGATCCA,-0.0672

row,Sequence,PBM E-score
1,GGGGCCGA,-0.41
2,CCTTTGAA,-0.0403
3,CATAGTAA,0.198
4,TCGCCACA,0.141
5,CGTGATTC,-0.00456
6,ACGGGGGC,-0.379
7,GAGGCGGA,-0.157
8,CCAACAGC,0.0293
9,ACTCGTAA,0.206
10,CCTGTTAG,0.121
11,ATCTGGCG,-0.097
12,CATATATC,0.127
13,AAGTACCC,-0.147
14,CGCTGGTC,-0.307
15,ATCTCTGG,-0.271
16,AGGTGTAA,0.159
17,ATCGCGAT,0.207
18,CCAGACAG,-0.122
19,TGGTGACA,0.0844

# Source: the supplement of paper PMC3334620
